Results as given in PubChem BioAssay AID743266 (National Center for Advancing Translational Sciences (NCATS), 2014).
Among all 410,000 compounds or so, about 310 (0.076%) were called active. The inconclusive results got no clear call from the source; some entries with a clear call stand among them for comparison. The call rests on the fitted dose curve; in most records, active means well fitted activation curve with a large enough effect; inconclusive means small, poorly fitted or top-dose-only effect, or another doubt; inactive means no such curve, though single readings can be large or run the other way. Potencies of inconclusive entries are doubtful fits and often do not repeat.

By UniProt entry, the sequences of proteins in these tests, tags left out.
UniProt Q03431, whole entry, looked up: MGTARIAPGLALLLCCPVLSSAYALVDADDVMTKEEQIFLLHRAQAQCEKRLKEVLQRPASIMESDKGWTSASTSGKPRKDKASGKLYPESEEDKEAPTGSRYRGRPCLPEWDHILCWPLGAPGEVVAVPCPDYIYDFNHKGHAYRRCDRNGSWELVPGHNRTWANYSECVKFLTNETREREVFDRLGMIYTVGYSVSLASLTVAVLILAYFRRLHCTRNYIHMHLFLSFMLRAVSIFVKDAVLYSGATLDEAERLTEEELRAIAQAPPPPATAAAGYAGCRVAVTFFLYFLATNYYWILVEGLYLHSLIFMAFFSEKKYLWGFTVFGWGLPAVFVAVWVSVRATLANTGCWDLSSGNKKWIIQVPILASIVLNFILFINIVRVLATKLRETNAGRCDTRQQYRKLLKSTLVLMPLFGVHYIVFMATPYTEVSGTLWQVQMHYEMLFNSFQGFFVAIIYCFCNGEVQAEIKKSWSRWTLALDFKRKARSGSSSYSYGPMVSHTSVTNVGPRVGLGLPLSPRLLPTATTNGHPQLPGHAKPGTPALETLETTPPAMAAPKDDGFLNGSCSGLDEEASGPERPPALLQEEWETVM

Each compound was assayed against Parathyroid hormone/parathyroid hormone-related peptide receptor (Homo sapiens) (UniProt Q03431) (assay: qHTS for PTHR1 Agonists: Primary Screen). Details: HEK293 GP2 PTHR1 cells, GloSensor cAMP luminescence, 1 h; activation: at 115 µM (top of the series) unless noted; series mostly up to 115 µM.
Summary of the method: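 HEK-293-derived GP2 cells expressing PTHR1 and a GloSensor cAMP reporter, 3,000/well, plated overnight, given luciferin plus IBMX (each 0.5 mM as added) for 1 h at 37 °C, then compound for 1 h at 37 °C. Luminescence was read after 15 min at room temperature.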
Further: nearly all actives have a fitted effect of over 55% in size.
Potency means the concentration at half of the fitted maximal effect.

Structure (SMILES)	Potency	activation
CC(=O)c1cc(F)c(N2CCN(c3ccc([N+](=O)[O-])cc3F)CC2)cc1C	inconclusive: 12.6 µM [activator, partial curve, poor fit]	
CCCCSc1nnc(-c2ccccc2NC(C)=O)c(=O)[nH]1	inconclusive: 126 µM [activator, single point]	
COc1ccc(NC(=O)COC(=O)CN2C(=O)c3ccccc3C2=O)cc1	inactive	
CCOC(=O)N1CCN(c2cc(=O)n(-c3cccc(C)c3)c(=O)[nH]2)CC1		inconclusive: 44.7% [activator]
O=C(Nc1nnc([C@H]2C[C@H](O)[C@@H](CO)O2)s1)Nc1cccc2c1CCCC2	inactive	
CC1Cc2ccccc2N1S(=O)(=O)c1cccs1 (stereo unspecified)	inactive	
COC(=O)c1ccc(-n2c(CCC(=O)O)ccc2-c2ccccc2)cc1	inconclusive: 0.316 µM [activator, full curve]	
O=C(O)CCCn1cc(NC(=O)COc2ccccc2[N+](=O)[O-])cn1	inconclusive: 112 µM [activator, single point]	
CCC(=O)N1CCN(c2ccc(NC(=S)NC(=O)c3ccc(OC)c([N+](=O)[O-])c3)cc2)CC1	inactive	
Cc1cc2n(n1)CCC(=O)N2Cc1ccc(C(=O)Nc2ccc(F)cc2F)cc1	inactive	
COc1ccc(S(=O)(=O)N2CCOCC2)cc1NC(=O)COc1cccnc1[N+](=O)[O-]	inactive	
NS(=O)(=O)c1ccc(NC=C2C(=O)OC3(CCCCC3)OC2=O)cc1	inconclusive: 11.2 µM [activator, partial curve, poor fit]	
O=C(c1ccccc1Cl)N1CCCCC1CCN1CCOCC1 (stereo unspecified)	inconclusive: 141 µM [activator, single point]	
COc1ccc(Cn2c(=S)[nH]c3cc(C(=O)NCCCN4CCOCC4)ccc3c2=O)cc1	inconclusive: 56.2 µM [activator, partial curve, poor fit]	
CC(=O)Nc1ccc(NC(=O)C2(c3cccs3)CCOCC2)cc1	inconclusive: 25.1 µM [activator, single point]	
Nc1nc(C(=O)N2CCOCC2)nn1C(=O)c1ccc(Cl)cc1	inconclusive: 89.1 µM [activator, partial curve, poor fit]	
O=C(Nc1nc2c(s1)CN(Cc1ccccc1)CC2)c1cccc(S(=O)(=O)N2CCc3ccccc32)c1	inconclusive: 56.2 µM [activator, single point]	
S=C(Nc1ccc2[nH]ccc2c1)NC1CCCCC1	inactive	
O=C1Nc2ccc(S(=O)(=O)N3CCCC3)c3ccc(S(=O)(=O)N4CCCC4)c1c23	inconclusive: 3.98 µM [activator, partial curve, poor fit]	
O=C(COC(=O)CCCOc1ccccc1)NC1CCS(=O)(=O)C1 (stereo unspecified)	inconclusive: 100 µM [activator, single point]	
Cc1ccccc1Nc1c([N+](=O)[O-])cncc1[N+](=O)[O-]	inconclusive: 7.94 µM [activator, full curve, poor fit]	
Cc1cc(C(=O)N/N=C2\CCCC(C)C2)n[nH]1 (stereo unspecified)		inconclusive: 107% [activator] [at 57.5 µM]
COc1ccc(NS(=O)(=O)c2ccc3[nH]c4c(c3c2)CCCC4)cc1OC	inactive	
CCCCc1c(C)[nH]c(C(=O)OCC)c1C	inconclusive: 12.6 µM [activator, partial curve, poor fit]	

At a glance, part of the list above:
Structure (SMILES)	Potency	activation
O=C(c1ccccc1Cl)N1CCCCC1CCN1CCOCC1 (stereo unspecified)	inconclusive: 141 µM [activator, single point]	
COc1ccc(Cn2c(=S)[nH]c3cc(C(=O)NCCCN4CCOCC4)ccc3c2=O)cc1	inconclusive: 56.2 µM [activator, partial curve, poor fit]	
CC(=O)Nc1ccc(NC(=O)C2(c3cccs3)CCOCC2)cc1	inconclusive: 25.1 µM [activator, single point]	

Next part

Structure (SMILES)	Potency	activation
CCC(=O)N1CCC1(C)C(=O)Nc1ccc2c(c1)OCO2 (stereo unspecified)	inconclusive: 39.8 µM [activator, single point]	
O=C1S/C(=C/c2ccc(N3CCOCC3)o2)C(=O)N1Cc1ccc(F)cc1	inactive	
COc1cccc(C(C)N(C)Cc2nc(COc3ccccc3)no2)c1 (stereo unspecified)	inactive	
CCCCn1c(N)c(N(CC)C(=O)c2c(C)noc2C)c(=O)[nH]c1=O	inconclusive: 126 µM [activator, single point]	
CC1=C(C(=O)Nc2ccc(Cl)cc2)C(CC(C)C)n2nc(SCc3ccccc3C)nc2N1 (stereo unspecified)	inconclusive: 31.6 µM [activator, single point]	
O=C(CN1CCCCC1)Nc1nc(-c2ccc(Cl)cc2)cs1	inactive	
Cc1cc(C)cc(NC(=S)NC2CC3CCC(C2)N3Cc2ccco2)c1 (stereo unspecified)	inactive	
CCOC(=O)C(NC(=O)c1ccccc1)=C1CCCCC1		inconclusive: 95.1% [activator]
Cc1ccc(COc2ccc(Br)cc2/C=N/O)cc1	inactive	
Cc1ccc2c(=O)[nH]c(Nc3nc(C)cc(-c4ccccc4)n3)nc2c1	inconclusive: 112 µM [activator, partial curve, poor fit]	
COc1ccc(NC(=O)c2sccc2C)cn1	inactive	
CCOC(=O)c1c(CC(C)C)csc1NC(=O)c1ccccc1C(=O)O	inactive	
C/C(=N\Nc1ccccn1)c1ccc2c(c1)OCO2	inconclusive: 141 µM [activator, single point]	
O=C(O)CNc1nc(-c2ccccc2)nc2c1oc1ccccc12	inconclusive: 141 µM [activator, single point]	
O=C(/C=C/c1ccc(-c2ccccc2[N+](=O)[O-])o1)c1ccco1	inactive	
CCNC(=O)Cc1ccc(NC(=O)N2CCCCc3ccccc32)cc1	inactive	
COC(=O)c1c(SCC(=O)Nc2ccc(C)c(C)c2)nc(=O)[nH]c1C	inconclusive: 56.2 µM [activator, partial curve, poor fit]	
CN(Cc1ccccc1)c1nc(-c2ccc([N+](=O)[O-])cc2)nc2ccccc12	inactive	
CCOC(=O)C1CCCN(CC(O)COCc2ccc3c(c2)OCO3)C1 (stereo unspecified)		inconclusive: -40.6% [activator]
FC(F)(F)c1ccc(/C=N/N2CCN(Cc3cccc4ccccc34)CC2)cc1	inactive	
CCCOc1ccccc1NC(=O)CC1Nc2ccccc2NC1=O (stereo unspecified)	inconclusive: 39.8 µM [activator, single point]	
Cc1cc(N2CCN(C)CC2)nc2ccc(NC(=S)N3CCN(c4ccccn4)CC3)cc12	inactive	
O=C(OCn1ncc(Cl)c(Cl)c1=O)c1ccc(C(F)(F)F)cc1	inactive	
c1ccc2c(c1)c1ccccc1n2CN1CCOCC1	inconclusive: 2.24 µM [activator, partial curve]	

Structure (SMILES)	Potency	activation
O=C1CCc2cc(S(=O)(=O)N3CCN(c4cccc(C(F)(F)F)c4)CC3)ccc2N1	inconclusive: 39.8 µM [activator, single point]	
O=c1ccsn1Cc1ccccc1	inconclusive: 6.31 µM [activator, partial curve]	
Cc1ccc2occ(CC(=O)Nc3ccc(S(=O)(=O)N4CCCC(C)C4)cc3)c2c1 (stereo unspecified)	inactive	
O=c1cc(-c2ccccc2)[nH][nH]1	inconclusive: 112 µM [activator, single point]	
CCNC(=O)/C(C#N)=C/c1c(N(Cc2ccccc2)Cc2ccccc2)nc2ccccn2c1=O		inconclusive: -46.5% [activator]
O=C(Nc1ccc(F)cc1F)c1cc(-c2ccco2)nc2ccccc12	inactive	
CC(C)CNC(=S)NNC(=O)c1csc2c1CCC(C)C2 (stereo unspecified)		inconclusive: 34.3% [activator] [at 57.5 µM]
COCCCNC(=O)CNC(=O)c1cn(-c2ccccc2OC)c(=O)c2ccccc12	inconclusive: 25.1 µM [activator, single point]	
COC(=O)Cn1ccc2cc(S(=O)(=O)N3CCCCCC3)ccc21	inconclusive: 31.6 µM [activator, partial curve, poor fit]	
O=C(O)c1[nH]c2ccccc2c1NS(=O)(=O)Cc1ccccc1	inconclusive: 35.5 µM [activator, single point]	
O=C(Cn1ncn2c(cc3ccccc32)c1=O)NCCC1=CCCCC1		inconclusive: 78% [activator] [at 57.5 µM]
Cc1ccc(C(=O)O/N=C(\N)c2cccnc2)cc1[N+](=O)[O-]	inactive	
Cc1ccccc1NC(=O)Cn1c(=O)n(Cc2ccc3c(c2)OCO3)c(=O)c2ccc(C(=O)NC3CCCCC3)cc21	inactive	
C#CCOCCOCCOCCNc1nc(N2CCN(C(=O)CCCCCCCCCCNC(=O)Cn3cc(C[C@@H](C)O)nn3)CC2)nc(N2CCN(C(=O)CCCCCCCCCCNC(=O)[C@@H]([C@H](C)O)n3cc(C)nn3)CC2)n1	inconclusive: 56.2 µM [activator, partial curve, poor fit]	
COc1ccccc1C(=O)Nc1ccc(C(=O)O)cc1	inconclusive: 15.8 µM [activator, partial curve]	
CCOC(=O)N1CCN(C(=O)c2ccc(OC)c(S(=O)(=O)N3CCOCC3)c2)CC1	inconclusive: 2.82 µM [activator, partial curve]	
CCn1cc2nc(SCC(=O)Nc3ccc(OC)c(Cl)c3)n(Cc3ccc(OC)cc3)c(=O)c2n1	inconclusive: 8.91 µM [activator, partial curve]	
COC(=O)C(NC(=O)c1ccccc1)=C1C=C(C)OC(C)=C1	inconclusive: 39.8 µM [activator, single point]	
COc1ccc(CCNC(=O)CSc2cccc3cccnc23)cc1OC		inconclusive: 53.3% [activator]
Cc1ccc(C(=O)NCC(=O)OCC(=O)NC(C)C2CC3CCC2C3)cc1 (stereo unspecified)	inconclusive: 50.1 µM [activator, single point]	
COc1ccc2oc(-c3ccc(C)c(NC(=O)c4ccc5c(c4)OCCO5)c3)nc2c1	inactive	
Cc1c(C#N)c(N)nc2c3c(sc12)NC(=O)CC3c1ccccc1 (stereo unspecified)	inactive	
CN1C(=O)CC(Sc2ncccc2C(=O)O)C1=O (stereo unspecified)	inconclusive: 39.8 µM [activator, partial curve, poor fit]	
